# Reference: PubChem BioAssay AID1347426 (Functional Genomics Laboratory (NCATS/FGL), 2020)
# About 1,400 (4.5%) of roughly 31,000 sequences were called active.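 The calls were made as follows: active = median seed-adjusted z-score above 1 or below -1; inactive = the rest.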 The list shows a part of the results.
# Test: Novel Modifiers of Survival Motor Neuron (SMN) Protein: Gene Identification via Genome-wide siRNA Screen;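 also: luminescence tracks full-length SMN protein made from the SMN2 reporter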
# Conditions: HEK293T SMN2-luciferase reporter, siRNA knockdown, 72 h; actives lie on both sides
# Procedure, shortened: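 Genome-wide siRNA screen (10418 genes, 3 siRNAs each, 1 pmol per well) by reverse transfection in HEK293T cells stably carrying an SMN2-luciferase reporter; luminescence after 72 hours, normalized to negative-control siRNA, log10-transformed, MAD-scored.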
row,Sequence,median seed-adjusted z-score
1,GCAGCUACUUUGUGCAGUUTT against CCBL1,inactive: -0.0496
2,GGACGAAGCUGUUCUGGAUTT against F7,inactive: 0.277
3,GCAUUGAACCUGACACCAUTT against AGK,inactive: -0.312
4,GCAAUGACAUGGAGUAUGATT against KIF19,inactive: 0.342
5,ACUUCACUCUUUUGGUUAATT against P2RX4,inactive: 0.467
6,AUAUCGACAGGAUAAAGGUTT against GNG2,inactive: 0.369
7,CACCGAUAUUACUCAACUATT against EOMES,inactive: -0.0248
8,CCACGGUUCCAGGCUAUUATT against CASP7,inactive: 0.213
9,CACCUGCAGCCUUCACUUUTT against CCR1,inactive: 0
10,CACGUGAACUUGUACCGCUTT against ATP8A1,inactive: 0
11,CCGUGAAAAUGUGCGUAAATT against TAF1L,inactive: 0.289
12,GGUGGUCUCUUUAUAAUGATT against PHAX,inactive: -0.0716
13,GAUCAAAUGUGUGGCCUUUTT against LGALS1,inactive: 0.033
14,GAUCCAGACAGUUUACGAATT against MSH4,inactive: 0
15,CCGUAGAUUUUCAUGAAUATT against PCDHGA8,inactive: 0.00691
16,GGUCAUUGACUGUUCGUAUTT against CTSO,inactive: 0.322
17,GUUAUACUGUGAGAUCUAATT against GPR160,inactive: -0.278
18,CCAAUGAAUUUACUCUUGATT against CYP19A1,inactive: -0.321
19,GCCUUUGAUCAGACAAAUATT against QKI,inactive: -0.206
20,CAUGUUGUAUAGUAUGCUATT against PUS3,inactive: 0.584
21,ACGGUUCGCUGAAAAAGAATT against PITX3,inactive: 0
22,GAAGGGCUCCAAAUGGUAATT against PAICS,inactive: -0.725

row,Sequence,median seed-adjusted z-score
1,GGAUCGAAAGCUUCGAUUUTT against ATP6V0A1,inactive: 0.103
2,GCUUAGUUCUGAAAACCGATT against SPRR2G,inactive: 0.358
3,CAACGGCUUCUGUCAUUUATT against SUCLG1,inactive: -0.63
4,CUGAUGCUCUGUAUCCCAATT against TNRC4,inactive: 0.801
5,CUGGGAGAGCUGCUAGAUATT against AMHR2,inactive: 0.557
6,CCUGGUUCGUCAUCAGAGATT against ZNF132,inactive: -0.484
7,GUAUCUAACUUAUCUACUATT against HTR5A,inactive: -0.0687
8,CUUUAUGACUUAGAGUUAATT against BAAT,inactive: 0.641
9,CGAGCUCUCUUCAAACGGATT against RPS6KA2,inactive: 0.139
10,GGCUCUAUCUGGAUCACAATT against LRRTM1,inactive: -0.528
11,GGAUCGUCCUCAAAUCCAATT against SLC10A1,inactive: -0.19
12,CGACCUUGUUGUCUCCAAATT against SYN3,inactive: -0.729
13,GACUGACCAUACUGAUAUUTT against NPY5R,inactive: 0.213
14,CCAGUAUGAGGUCGACUAUTT against KCNJ14,inactive: -0.526
15,CAGUGUAUCUUUUGCUGGATT against GPR81,inactive: 0.0718
16,GACUCGCUAUGACAGUGGATT against DNAJC7,inactive: 0.268
17,GAAUCCCAGUGGUGAGACATT against ABHD4,inactive: -0.054
18,ACAACUAUGGGAAAACAUUTT against CHAT,inactive: -0.109
19,GUCUUAUGAUUACAAUGAATT against ZNF248,inactive: -0.0486
20,CGACUGCAUCAACCAGAUATT against EXTL1,inactive: 0
21,GCAUUGCCGUUGAUCGGUATT against GPR65,inactive: -0.766
22,CUCUGGUACUUGAGUAUAATT against B3GALT1,inactive: -0.0555

# Reprinted at random: four records from the list.
row,Sequence,median seed-adjusted z-score
9,CGAGCUCUCUUCAAACGGATT against RPS6KA2,inactive: 0.139
11,GGAUCGUCCUCAAAUCCAATT against SLC10A1,inactive: -0.19
1,GGAUCGAAAGCUUCGAUUUTT against ATP6V0A1,inactive: 0.103
3,CAACGGCUUCUGUCAUUUATT against SUCLG1,inactive: -0.63

# Reprinted from above for reference:
row,Sequence,median seed-adjusted z-score
2,GCUUAGUUCUGAAAACCGATT against SPRR2G,inactive: 0.358
3,CAACGGCUUCUGUCAUUUATT against SUCLG1,inactive: -0.63

# Following part.

row,Sequence,median seed-adjusted z-score
1,GAAACAGUGCUGAAGCCUUTT against RYBP,inactive: 0.831
2,GCCCUUCUAAGACCCACGATT against KLK12,inactive: 0.243
3,GUUGUGAAGUUAUCCGAGATT against PPIL4,inactive: 0.00225
4,GAGCAUUCAUUUACUCGAATT against HERC1,inactive: 0.168
5,GGAGACGAUUGGGAAGAUATT against ZNF622,inactive: -0.462
6,GAGUAUAUAAGGAAGUAAATT against ATP5F1,inactive: -0.323
7,GAACUUAAUGGAUGCACCATT against SPINK1,inactive: 0.292
8,AGAAGUUAAUGGACUGUUUTT against RBM38,inactive: 0.0358
9,GCUACAGGCUCGCAUCGAATT against EVPL,inactive: -0.146
10,GGACAUGAGGAAUGAGUUATT against FOXR2,inactive: 0.593
11,AGUGGAUUGUAGACAUGGATT against UBE2W,inactive: -0.655
12,GGCUGAACGUGCUUGCAAATT against OGDH,inactive: 0.253
13,GAAGCAGACUAAACGAGCUTT against SYT13,inactive: 0.275
14,GGAAGGUUCUGAAUAUAGATT against ARHGDIB,inactive: -0.549
15,GCCGUAAUGUUUGUAUAGATT against ADAMTS16,inactive: -0.133
16,CGCUUAAGCCUUCCAACAATT against POLR2A,active: -3.81
17,GUGUUUUUGUAGUUACCUATT against TSEN34,inactive: 0.918
18,AACUUAACCUUAUGGAUUUTT against LAMB3,inactive: -0.0106
19,CCUUUGAGAUCGAGCGUGATT against AANAT,inactive: -0.168
20,GCUUAAAUACUUACACCAATT against CHST9,inactive: 0.252
21,GGAUGCUGGUCUCUAAGGATT against DTX3,inactive: 0.227
22,CCUGGAGACUAUUACUUGATT against EXDL2,inactive: -0.0717

row,Sequence,median seed-adjusted z-score
1,GGAUGGUAGUGUCUGACUUTT against MGLL,inactive: 0.288
2,GUGUUUGCGGGAACGGUUATT against TFAP2E,inactive: 0.243
3,ACUUGUUCACAUACAGAAATT against FABP7,inactive: 0.562
4,CCACCGUCGAUGAUCGCAATT against CCND2,inactive: -0.819
5,GGACCGAGUGACUACUAUATT against CDKL1,inactive: -0.28
6,ACCUGGAUCUCUCCCACAATT against PODNL1,inactive: -0.448
7,GGAAAAGAAUGUAUAAACUTT against SPTLC1,inactive: 0.0941
8,CCCUAAUCGUCUUCUCUAATT against CPT1C,inactive: -0.458
9,GAAGAACACGUAUGAUGUUTT against DLG4,inactive: -0.498
10,GGACCUCUCAAGUUACCCATT against KIRREL3,inactive: -0.206
11,GAUUAUUGUGGACACCUAUTT against MAT1A,inactive: 0.501
12,GGGCUGUGAUCUUGUCGAATT against AGMAT,inactive: -0.0269
13,CUCUACCCGUGCUAUAUAATT against TIGD1,inactive: 0.224
14,GGGAGCAUCUCAACAAGCATT against ZNF319,inactive: 0.256
15,GAGAAAAUCUAUAUCCGGATT against NR2C2,inactive: -0.498
16,CCGUACAGGCAGCAAUUAATT against DNA2,inactive: 0.0284
17,AGUGGAUAGCCUCAAGAAATT against SDPR,inactive: -0.0738
18,GGAACAAGCAAGUUGUAGATT against CACHD1,inactive: 0.119
19,GGCAUCAUGUACUACCUAATT against SLC6A9,inactive: 0.241
20,CCUCGUUCAGAAUACAUCATT against TPP2,inactive: -0.562
21,AGGCAGACCGAUAAAAAGATT against PTPN18,inactive: -0.206
22,CAACAUCUACAAUCUCUAUTT against CTSA,inactive: 0.0897

row,Sequence,median seed-adjusted z-score
1,GGAGUAACCUGAAUCAUCUTT against MTCH1,inactive: 0
2,GUAUCAAGCACGAUAUAUATT against RIPK2,inactive: 0.176
3,CCAUUGAAGCUUGAGAGAATT against ZNF286A,inactive: 0.0368
4,GAAUCAACAUGGUAGAAGATT against KARS,inactive: -0.152
5,GAAGGCCUCUGAUGACUAUTT against TSSK4,inactive: -0.162
6,AGACAUAUAUCAUUGAUCATT against ITFG2,inactive: 0.165
7,ACAUGAACACUGAGGUGGATT against FOXN4,inactive: 0.15
8,GUACCAUUGUGUGUGCUUATT against DLK2,inactive: -0.695
9,CCCUCAAAGCUAUAGCUCUTT against ESRRG,inactive: -0.681
10,CAACCACGAUCUGAAGUUUTT against FGL2,inactive: 0
11,GCAUCGCAAGAGCUGCAAATT against DPYD,inactive: -0.112
12,GGAAGGAUUUGACCGAAAATT against PCSK2,inactive: -0.704
13,GAAUUGGAAGAAGAUAUCATT against RHOBTB3,inactive: 0.256
14,GGAUGUGAACGGGCACAUUTT against CDC42BPG,inactive: 0.153
15,GCUCAGUGGUUGUAGCAGATT against GABRA1,inactive: -0.405
16,GAGCGAGUCUACAAGUGUATT against REST,inactive: 0.416
17,GCAAAAGGCGAGUACAAGATT against SH3BP5,inactive: -0.707
18,AGCCGGUGUUCAUCUCCAATT against SP8,inactive: -0.215
19,GGCCUACUGUGGAAUUGGATT against TTC3,active: -1.17
